Experimental data from paper PMC7754597.
Results are given in words; binding and its absence hold for the method and conditions named. Some entries that bind do so weakly or less than the wild type.

Target: T1, Full-length human CHMP4B^A54C;L180C (CHMP4B^redox) (human) (UniProt Q9H444)
T1 sequence: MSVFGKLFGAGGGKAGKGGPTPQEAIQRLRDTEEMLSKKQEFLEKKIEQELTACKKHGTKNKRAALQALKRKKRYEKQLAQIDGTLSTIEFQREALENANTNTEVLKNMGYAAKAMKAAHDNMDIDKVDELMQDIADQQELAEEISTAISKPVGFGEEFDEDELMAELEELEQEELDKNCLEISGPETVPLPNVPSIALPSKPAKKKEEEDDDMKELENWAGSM
Assay: co-IP; purified CHMP4B^redox and LGD1 incubated with rabbit anti-CHMP4B antibody overnight at 4 °C, then Protein G Sepharose beads; washed with Wash Buffer I (50 mM NaH2PO4, 300 mM NaCl, 5% glycerol, pH 7.4); Western blot with anti-His and anti-CHMP4B; both purified

B1: LGD1 (CC2D1B) (protein, UniProt Q5T0F9 1-858)
chain: MMPGPRPRKGPQARGQGVAAAKQMGLFMEFGPEDMLLGMDEAEDDEDLEAELLALTGEAQTTGKKPAPKGQAPLPMAHIEKLAADCMRDVEEEEEEEGLEEDAELLTELQEVLGVDEETEPLDGDEVADPGGSEEENGLEDTEPPVQTAVLTASAPAAQAGASQGLHALLEERIHNYREAAASAKEAGEAAKARRCERGLKTLESQLASVRRGRKINEDEIPPPVALGKRPLAPQEPANRSPETDPPAPPALESDNPSQPETSLPGISAQPVSDLDPDPRALLSSRQREYKVAALSAKRAGELDRARELMRIGKRFGAVLEALEKGQPVDLSAMPPAPEDLKPQQASQAPTAPSVIPPAVERVQPVMAPDVPATPVAPTESQTVLDALQQRLNKYREAGIQARSGGDERKARMHERIAKQYQDAIRAHRAGRKVNFAELPVPPGFPPIPGLESTMGVEEDAVAATLAAAEKLASAEDSAPADKDEDEPPGHLQGEPPAQAPVAKKPARPTVPSSQRLPEPRASSSKESPSPSVREQLALLEARKLQYQRAALQAKRSQDLEQAKAYLRVAKWLEAQIIQARSGRPVDLSKVPSPLTDEEGDFILIHHEDLRLSQKAEEVYAQLQKMLLEQQEKCLLFSKQFMHQGNVAETTRFEKLAQDRKKQLEILQLAQAQGLDPPTHHFELKTFQTVRIFSELNSTEMHLIIVRGMNLPAPPGVTPDDLDAFVRFEFHYPNSDQAQKSKTAVVKNTNSPEFDQLFKLNINRNHRGFKRVIQSKGIKFEIFHKGSFFRSDKLVGTAHLKLERLENECEIREIVEVLDGRKPTGGKLEVKVRLREPLSGQDVQMVTENWLVLEPRGL
  binding: binds
